Source: the supplement of paper PMC10849652
Some of the results follow.

Amino acid sequences for entries named in this document (tags omitted). A change or cut given only in a name is not applied to a line headed by its entry.
UniProt P05165: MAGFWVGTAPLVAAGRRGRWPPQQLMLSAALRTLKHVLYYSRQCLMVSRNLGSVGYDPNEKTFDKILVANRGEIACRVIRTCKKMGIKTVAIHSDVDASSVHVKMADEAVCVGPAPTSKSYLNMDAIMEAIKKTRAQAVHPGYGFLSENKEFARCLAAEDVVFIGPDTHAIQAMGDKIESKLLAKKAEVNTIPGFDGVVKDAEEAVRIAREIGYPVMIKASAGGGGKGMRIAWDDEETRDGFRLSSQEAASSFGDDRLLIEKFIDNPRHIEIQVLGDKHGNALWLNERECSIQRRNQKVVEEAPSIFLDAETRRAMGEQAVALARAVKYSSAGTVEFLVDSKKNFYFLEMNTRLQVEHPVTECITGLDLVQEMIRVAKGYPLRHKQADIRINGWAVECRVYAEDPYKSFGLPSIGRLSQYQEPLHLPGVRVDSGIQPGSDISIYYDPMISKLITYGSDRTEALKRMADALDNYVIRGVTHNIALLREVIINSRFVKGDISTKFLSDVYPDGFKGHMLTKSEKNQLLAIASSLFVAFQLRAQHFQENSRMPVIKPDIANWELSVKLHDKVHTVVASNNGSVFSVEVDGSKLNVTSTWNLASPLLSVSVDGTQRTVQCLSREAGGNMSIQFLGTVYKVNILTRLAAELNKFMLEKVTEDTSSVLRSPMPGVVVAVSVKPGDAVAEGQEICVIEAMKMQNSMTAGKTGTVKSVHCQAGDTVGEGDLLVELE
UniProt P40425: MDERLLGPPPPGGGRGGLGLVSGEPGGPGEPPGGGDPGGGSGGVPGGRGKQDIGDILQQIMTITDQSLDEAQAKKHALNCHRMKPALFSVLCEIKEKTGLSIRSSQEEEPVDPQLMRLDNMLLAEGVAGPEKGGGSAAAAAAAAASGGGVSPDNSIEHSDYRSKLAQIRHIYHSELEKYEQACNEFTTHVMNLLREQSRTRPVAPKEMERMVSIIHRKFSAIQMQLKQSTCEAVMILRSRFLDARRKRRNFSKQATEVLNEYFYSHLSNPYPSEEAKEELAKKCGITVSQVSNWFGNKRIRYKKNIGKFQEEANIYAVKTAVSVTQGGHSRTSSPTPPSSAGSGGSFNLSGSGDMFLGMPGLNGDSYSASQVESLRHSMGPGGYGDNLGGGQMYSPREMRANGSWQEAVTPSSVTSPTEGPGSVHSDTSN
UniProt P52209: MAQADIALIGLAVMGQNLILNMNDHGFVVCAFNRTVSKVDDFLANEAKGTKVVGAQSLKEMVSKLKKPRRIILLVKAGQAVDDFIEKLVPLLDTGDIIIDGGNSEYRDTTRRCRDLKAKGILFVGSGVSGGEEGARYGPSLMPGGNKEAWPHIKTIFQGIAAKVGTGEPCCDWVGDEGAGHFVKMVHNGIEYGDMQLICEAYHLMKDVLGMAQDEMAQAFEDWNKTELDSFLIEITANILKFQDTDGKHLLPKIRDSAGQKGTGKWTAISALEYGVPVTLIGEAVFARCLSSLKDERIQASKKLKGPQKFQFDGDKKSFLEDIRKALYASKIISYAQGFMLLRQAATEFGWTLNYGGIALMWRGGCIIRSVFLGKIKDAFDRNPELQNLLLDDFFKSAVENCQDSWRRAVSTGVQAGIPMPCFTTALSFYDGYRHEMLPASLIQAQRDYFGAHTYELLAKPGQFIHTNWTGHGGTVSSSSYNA
UniProt Q9H4Z3: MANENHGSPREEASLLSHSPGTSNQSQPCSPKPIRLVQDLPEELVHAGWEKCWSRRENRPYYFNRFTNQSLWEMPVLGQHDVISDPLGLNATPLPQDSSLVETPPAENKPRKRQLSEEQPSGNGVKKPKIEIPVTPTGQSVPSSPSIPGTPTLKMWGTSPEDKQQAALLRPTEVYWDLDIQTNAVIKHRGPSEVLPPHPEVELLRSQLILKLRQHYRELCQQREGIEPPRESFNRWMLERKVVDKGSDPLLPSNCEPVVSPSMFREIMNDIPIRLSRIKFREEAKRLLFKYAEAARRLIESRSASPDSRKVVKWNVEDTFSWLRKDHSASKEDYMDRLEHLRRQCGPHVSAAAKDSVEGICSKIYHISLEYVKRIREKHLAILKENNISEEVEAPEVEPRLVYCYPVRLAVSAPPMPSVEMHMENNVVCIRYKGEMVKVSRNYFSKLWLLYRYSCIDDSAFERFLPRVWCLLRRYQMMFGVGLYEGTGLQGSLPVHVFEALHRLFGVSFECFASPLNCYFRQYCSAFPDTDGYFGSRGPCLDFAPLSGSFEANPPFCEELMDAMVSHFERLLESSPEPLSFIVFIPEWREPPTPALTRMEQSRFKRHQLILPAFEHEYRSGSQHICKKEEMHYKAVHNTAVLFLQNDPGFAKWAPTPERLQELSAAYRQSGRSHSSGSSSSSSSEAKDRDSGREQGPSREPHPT
UniProt Q92968: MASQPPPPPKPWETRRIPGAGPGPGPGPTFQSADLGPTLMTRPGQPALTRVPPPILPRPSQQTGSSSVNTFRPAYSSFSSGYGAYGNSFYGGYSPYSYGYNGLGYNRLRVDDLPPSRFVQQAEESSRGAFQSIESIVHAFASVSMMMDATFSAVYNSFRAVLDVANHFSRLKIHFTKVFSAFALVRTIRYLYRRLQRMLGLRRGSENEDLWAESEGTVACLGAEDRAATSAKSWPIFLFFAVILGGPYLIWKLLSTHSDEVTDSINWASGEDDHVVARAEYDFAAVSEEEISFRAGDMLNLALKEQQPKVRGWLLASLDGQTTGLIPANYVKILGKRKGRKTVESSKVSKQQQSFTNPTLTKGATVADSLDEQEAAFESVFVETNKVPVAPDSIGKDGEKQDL
UniProt Q96GD0: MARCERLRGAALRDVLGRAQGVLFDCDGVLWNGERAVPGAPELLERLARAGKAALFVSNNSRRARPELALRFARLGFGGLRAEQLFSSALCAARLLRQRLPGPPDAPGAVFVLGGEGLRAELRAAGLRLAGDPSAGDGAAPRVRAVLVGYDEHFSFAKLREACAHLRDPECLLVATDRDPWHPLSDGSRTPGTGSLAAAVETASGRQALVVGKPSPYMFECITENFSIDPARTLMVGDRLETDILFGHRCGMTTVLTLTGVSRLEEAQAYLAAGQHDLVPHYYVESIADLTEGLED
UniProt O95613: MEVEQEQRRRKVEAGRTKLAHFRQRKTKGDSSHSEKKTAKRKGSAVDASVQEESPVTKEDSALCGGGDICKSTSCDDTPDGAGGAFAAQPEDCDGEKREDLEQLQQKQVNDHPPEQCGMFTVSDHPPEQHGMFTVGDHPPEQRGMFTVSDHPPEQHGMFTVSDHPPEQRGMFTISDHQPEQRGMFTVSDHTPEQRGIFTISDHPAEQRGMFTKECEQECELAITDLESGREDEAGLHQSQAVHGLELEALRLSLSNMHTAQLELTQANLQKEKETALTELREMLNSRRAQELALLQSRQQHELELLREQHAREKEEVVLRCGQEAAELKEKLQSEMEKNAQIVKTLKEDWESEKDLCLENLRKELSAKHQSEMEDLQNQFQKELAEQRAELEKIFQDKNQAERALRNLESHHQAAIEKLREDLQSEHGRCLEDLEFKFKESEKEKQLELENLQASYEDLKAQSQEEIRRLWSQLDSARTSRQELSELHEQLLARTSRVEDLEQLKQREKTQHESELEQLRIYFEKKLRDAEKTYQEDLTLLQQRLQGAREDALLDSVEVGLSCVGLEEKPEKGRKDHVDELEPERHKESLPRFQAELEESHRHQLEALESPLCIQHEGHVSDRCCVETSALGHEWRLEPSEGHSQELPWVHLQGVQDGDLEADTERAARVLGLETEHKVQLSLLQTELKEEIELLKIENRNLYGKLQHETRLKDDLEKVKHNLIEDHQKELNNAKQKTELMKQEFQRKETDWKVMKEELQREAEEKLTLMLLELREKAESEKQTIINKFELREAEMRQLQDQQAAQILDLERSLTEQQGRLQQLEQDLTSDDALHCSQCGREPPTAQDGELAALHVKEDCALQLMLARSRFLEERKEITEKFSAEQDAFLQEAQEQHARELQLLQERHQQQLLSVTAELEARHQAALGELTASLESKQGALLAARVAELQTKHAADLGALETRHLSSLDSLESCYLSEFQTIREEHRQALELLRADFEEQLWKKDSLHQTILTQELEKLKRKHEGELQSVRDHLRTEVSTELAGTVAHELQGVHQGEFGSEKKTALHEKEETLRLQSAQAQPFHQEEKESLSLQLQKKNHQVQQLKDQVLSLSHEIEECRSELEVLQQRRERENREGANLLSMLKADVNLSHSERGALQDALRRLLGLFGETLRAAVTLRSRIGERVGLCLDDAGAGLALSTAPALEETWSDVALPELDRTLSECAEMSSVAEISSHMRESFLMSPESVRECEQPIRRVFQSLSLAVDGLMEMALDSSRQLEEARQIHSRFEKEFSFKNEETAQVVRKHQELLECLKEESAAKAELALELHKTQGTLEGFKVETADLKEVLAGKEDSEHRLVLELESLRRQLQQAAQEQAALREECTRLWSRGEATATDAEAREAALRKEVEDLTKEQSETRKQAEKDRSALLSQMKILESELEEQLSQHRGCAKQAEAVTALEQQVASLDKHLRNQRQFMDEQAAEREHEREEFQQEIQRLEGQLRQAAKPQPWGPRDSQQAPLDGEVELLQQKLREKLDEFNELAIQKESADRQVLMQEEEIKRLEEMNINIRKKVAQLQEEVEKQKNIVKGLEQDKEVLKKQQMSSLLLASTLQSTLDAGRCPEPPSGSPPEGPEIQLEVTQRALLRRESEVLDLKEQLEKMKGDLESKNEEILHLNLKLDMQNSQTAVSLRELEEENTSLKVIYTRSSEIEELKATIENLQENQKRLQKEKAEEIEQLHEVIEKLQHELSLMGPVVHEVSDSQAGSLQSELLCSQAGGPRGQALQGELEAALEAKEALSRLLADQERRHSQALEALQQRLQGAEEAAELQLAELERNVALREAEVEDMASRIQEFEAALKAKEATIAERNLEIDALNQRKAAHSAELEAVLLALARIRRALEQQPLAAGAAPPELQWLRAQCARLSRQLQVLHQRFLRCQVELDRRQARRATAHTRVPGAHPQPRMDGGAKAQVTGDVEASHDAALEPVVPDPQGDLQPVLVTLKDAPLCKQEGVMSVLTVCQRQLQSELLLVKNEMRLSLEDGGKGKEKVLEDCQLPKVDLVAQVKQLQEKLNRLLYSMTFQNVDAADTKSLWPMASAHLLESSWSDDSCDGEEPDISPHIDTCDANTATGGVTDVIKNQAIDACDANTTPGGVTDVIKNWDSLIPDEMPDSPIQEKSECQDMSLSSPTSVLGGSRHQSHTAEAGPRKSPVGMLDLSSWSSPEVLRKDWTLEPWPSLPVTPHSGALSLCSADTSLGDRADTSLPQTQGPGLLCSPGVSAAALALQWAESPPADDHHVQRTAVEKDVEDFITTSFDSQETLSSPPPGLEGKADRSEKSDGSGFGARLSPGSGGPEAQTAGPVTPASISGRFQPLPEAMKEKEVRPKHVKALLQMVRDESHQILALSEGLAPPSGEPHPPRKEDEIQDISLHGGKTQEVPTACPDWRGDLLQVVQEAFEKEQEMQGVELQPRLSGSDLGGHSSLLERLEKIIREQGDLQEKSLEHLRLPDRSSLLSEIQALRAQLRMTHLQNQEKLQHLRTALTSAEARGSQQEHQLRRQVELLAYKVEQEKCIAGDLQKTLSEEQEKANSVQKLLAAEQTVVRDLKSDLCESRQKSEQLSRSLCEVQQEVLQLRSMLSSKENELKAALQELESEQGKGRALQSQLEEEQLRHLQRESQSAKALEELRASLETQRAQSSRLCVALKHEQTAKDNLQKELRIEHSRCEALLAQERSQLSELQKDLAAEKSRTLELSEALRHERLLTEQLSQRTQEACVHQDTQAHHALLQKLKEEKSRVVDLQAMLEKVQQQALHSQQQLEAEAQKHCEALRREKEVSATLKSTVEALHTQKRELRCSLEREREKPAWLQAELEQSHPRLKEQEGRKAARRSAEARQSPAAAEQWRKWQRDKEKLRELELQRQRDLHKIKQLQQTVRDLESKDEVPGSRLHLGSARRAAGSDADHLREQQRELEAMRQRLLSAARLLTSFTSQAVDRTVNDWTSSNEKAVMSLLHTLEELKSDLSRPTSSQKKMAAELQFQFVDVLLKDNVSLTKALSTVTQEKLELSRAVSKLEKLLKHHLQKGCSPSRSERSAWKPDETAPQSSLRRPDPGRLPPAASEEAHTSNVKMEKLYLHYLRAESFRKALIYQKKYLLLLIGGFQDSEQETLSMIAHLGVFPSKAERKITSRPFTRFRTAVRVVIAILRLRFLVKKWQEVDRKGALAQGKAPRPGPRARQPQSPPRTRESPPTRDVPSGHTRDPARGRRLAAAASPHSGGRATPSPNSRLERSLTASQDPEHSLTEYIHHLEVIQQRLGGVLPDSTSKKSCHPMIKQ

What was measured:
Assay in all cases: log2 fold change, soluble protein after heating vs DMSO (PISA); higher = thermal stabilisation; K562 lysate, 10 uM; active = over 0.2 and 3.5 SD of the protein, either way, in both replicates (recomputed)
alvocidib = compound: CN1CC[C@H](c2c(O)cc(O)c3c(=O)cc(-c4ccccc4Cl)oc23)[C@H](O)C1 [alvocidib]
How it was run: (§1)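 To prepare the extract, K562 pellets were dounce-homogenised in PBS pH 7.4 with 1 mM MgCl2, giving crude material at 1 mg/mL protein. This was treated with 10 μM compound for 30 min, then heated in aliquots for 3 min over 48°C-58°C before pooling and addition of NP-40 to 0.5% at 4°C. Centrifugation at 21,000xg for 90 min left soluble protein in the supernatant, which TMTpro 16plex LC-MS/MS quantified with equalised channel sums. Results are log-two fold changes in thermal stability compared with solvent controls, from duplicates.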

Tubastatin A = compound: CN1CCc2c(c3ccccc3n2Cc2ccc(C(=O)NO)cc2)C1 [Tubastatin A]
How it was run: as §1

[1] = compound: CNC(=O)C1=CC=CC=C1NC2=NC(=NC=C2Cl)NC3=C(C=C(C=C3)N4CCOCC4)OC
How it was run: as §1

defactinib = compound: CNC(=O)c1ccc(Nc2ncc(C(F)(F)F)c(NCc3nccnc3N(C)S(C)(=O)=O)n2)cc1 [defactinib]
How it was run: as §1

[2] = compound: CNc1nc(-c2ccc3c(N)n[nH]c3c2)cc(N2C[C@@H](C(=O)NC3CCCCC3)CC[C@H]2C)n1
How it was run: as §1

encorafenib = compound: COC(=O)N[C@@H](C)CNc1nccc(-c2cn(C(C)C)nc2-c2cc(Cl)cc(NS(C)(=O)=O)c2F)n1 [encorafenib]
How it was run: as §1

[3] = compound: COC(=O)[C@H](CCSC)NC(=O)C1=C(C=C(C=C1)NC[C@H](CS)N)C2=CC=CC=C2
How it was run: as §1

alisertib = compound: COc1cc(Nc2ncc3c(n2)-c2ccc(Cl)cc2C(c2c(F)cccc2OC)=NC3)ccc1C(=O)O [alisertib]
How it was run: as §1

[4] = compound: COc1cc2nc(-c3cc(F)ccc3O)nc(N[C@@H]3CNC[C@H]3C(C)(C)O)c2cc1OC
How it was run: as §1

gefitinib = compound: COc1cc2ncnc(Nc3ccc(F)c(Cl)c3)c2cc1OCCCN1CCOCC1 [gefitinib]
How it was run: as §1

lapatinib = compound: CS(=O)(=O)CCNCc1ccc(-c2ccc3ncnc(Nc4ccc(OCc5cccc(F)c5)c(Cl)c4)c3c2)o1 [lapatinib]
How it was run: as §1

pictilisib = compound: CS(=O)(=O)N1CCN(Cc2cc3nc(-c4cccc5[nH]ncc45)nc(N4CCOCC4)c3s2)CC1 [pictilisib]
How it was run: as §1

crizotinib = compound: C[C@@H](Oc1cc(-c2cnn(C3CCNCC3)c2)cnc1N)c1c(Cl)ccc(F)c1Cl [crizotinib]
How it was run: as §1

[5] = compound: C[C@H](C1=CC=C(C=C1)C(=O)NC2=C3C=CNC3=NC=C2)N
How it was run: as §1

duvelisib = compound: C[C@H](Nc1ncnc2nc[nH]c12)c1cc2cccc(Cl)c2c(=O)n1-c1ccccc1 [duvelisib]
How it was run: as §1

gandotinib = compound: Cc1cc(Nc2cc(CN3CCOCC3)c3nc(C)c(Cc4ccc(Cl)cc4F)n3n2)n[nH]1 [gandotinib]
How it was run: as §1

tozasertib = compound: Cc1cc(Nc2cc(N3CCN(C)CC3)nc(Sc3ccc(NC(=O)C4CC4)cc3)n2)n[nH]1 [tozasertib]
How it was run: as §1

doramapimod = compound: Cc1ccc(-n2nc(C(C)(C)C)cc2NC(=O)Nc2ccc(OCCN3CCOCC3)c3ccccc23)cc1 [doramapimod]
How it was run: as §1

bafetinib = compound: Cc1ccc(NC(=O)c2ccc(CN3CC[C@H](N(C)C)C3)c(C(F)(F)F)c2)cc1Nc1nccc(-c2cncnc2)n1 [bafetinib]
How it was run: as §1

[6] = compound: Cc1cccc(CC(=O)N2CCc3c2ccc(-c2cn(C)c4ncnc(N)c24)c3F)n1
How it was run: as §1

Measured: log2 fold change

PCCA (UniProt P05165)
inactive: alvocidib 0.001 | Tubastatin A 0.062 | [1] -0.046 | defactinib -0.026 | [2] -0.042 | encorafenib -0.006 | [3] 0.137 | alisertib 0.003 | [4] 0.024 | gefitinib -0.032 | lapatinib 0.029 | pictilisib -0.023 | crizotinib -0.008 | [5] 0.009 | duvelisib 0.014 | gandotinib -0.022 | tozasertib 0.009 | doramapimod 0.004 | bafetinib 0.014 | [6] 0.018

PDIA5 (UniProt Q14554)
inactive: alvocidib -0.02 | Tubastatin A 0.028 | [1] 0.013 | defactinib 0.004 | [2] -0.011 | encorafenib -0.009 | [3] -0.056 | alisertib 0.012 | [4] -0.01 | gefitinib -0.041 | lapatinib -0.004 | pictilisib -0.019 | crizotinib -0.011 | [5] 0.012 | duvelisib 0.004 | gandotinib 0.027 | tozasertib 0.013 | doramapimod 0.039 | bafetinib -0.01 | [6] 0.003

PARP16 isoform 3 (UniProt Q8N5Y8)
inactive: alvocidib -0.082 | Tubastatin A 0.081 | [1] -0.051 | defactinib 0.019 | [2] 0.031 | encorafenib -0.077 | [3] -0.027 | alisertib 0.01 | [4] -0.024 | gefitinib 0.109 | lapatinib -0.035 | pictilisib -0.04 | crizotinib -0.037 | [5] 0.015 | duvelisib 0.012 | gandotinib 0.085 | tozasertib -0.052 | doramapimod -0.025 | bafetinib 0.078 | [6] 0.095

PDCD2 (UniProt Q16342)
inactive: alvocidib 0.001 | Tubastatin A -0.017 | [1] 0.003 | defactinib -0.01 | [2] 0.02 | encorafenib -0.018 | [3] 0.076 | alisertib -0.015 | [4] 0.012 | gefitinib -0.051 | lapatinib -0.015 | pictilisib -0.034 | crizotinib -0.02 | [5] -0.027 | duvelisib -0.041 | gandotinib -0.03 | tozasertib 0.021 | doramapimod 0.032 | bafetinib -0.059 | [6] 0.072

PBX2 (UniProt P40425)
inactive: alvocidib -0.018 | Tubastatin A -0.032 | [1] 0.028 | defactinib 0.021 | [2] -0.001 | encorafenib 0.028 | [3] 0.161 | alisertib 0.004 | [4] 0.009 | gefitinib -0.001 | lapatinib -0.017 | pictilisib -0.062 | crizotinib 0.039 | [5] -0.089 | duvelisib 0.006 | gandotinib -0.038 | tozasertib 0 | doramapimod -0.023 | bafetinib -0.016 | [6] -0.017

PCK2 (UniProt Q16822)
inactive: alvocidib 0.023 | Tubastatin A 0.035 | [1] -0.026 | defactinib 0.019 | [2] 0.033 | encorafenib -0.017 | [3] -0.017 | alisertib 0.007 | [4] -0.012 | gefitinib -0.013 | lapatinib 0.007 | pictilisib -0.02 | crizotinib -0.029 | [5] -0.016 | duvelisib 0.014 | gandotinib -0.016 | tozasertib 0.002 | doramapimod 0.011 | bafetinib -0.017 | [6] 0.035

PEX14 (UniProt O75381)
inactive: alvocidib -0.017 | Tubastatin A 0.008 | [1] -0.001 | defactinib 0.013 | [2] 0.06 | encorafenib -0.012 | [3] 0.134 | alisertib -0.021 | [4] 0.049 | gefitinib -0.023 | lapatinib -0.018 | pictilisib -0.009 | crizotinib 0.008 | [5] -0.036 | duvelisib 0.002 | gandotinib 0.006 | tozasertib 0.012 | doramapimod 0.006 | bafetinib -0.042 | [6] -0.015

PGD (UniProt P52209)
inactive: alvocidib 0.034 | Tubastatin A 0.033 | [1] -0.032 | defactinib -0.016 | [2] -0.036 | encorafenib -0.027 | [3] -0.02 | alisertib -0.007 | [4] 0.001 | gefitinib -0.011 | lapatinib 0.007 | pictilisib 0.008 | crizotinib 0.005 | [5] 0.051 | duvelisib -0.007 | gandotinib -0.056 | tozasertib 0.026 | doramapimod 0.007 | bafetinib 0.05 | [6] -0.057

PCIF1 (UniProt Q9H4Z3)
active: [5] -0.239
inactive: alvocidib 0.038 | Tubastatin A 0.006 | [1] -0.024 | defactinib 0.051 | [2] 0.02 | encorafenib 0.017 | [3] 0.02 | alisertib 0.04 | [4] 0.01 | gefitinib -0.051 | lapatinib -0.059 | pictilisib -0.016 | crizotinib -0.001 | duvelisib 0.216 | gandotinib 0.074 | tozasertib -0.003 | doramapimod 0.017 | bafetinib -0.059 | [6] 0.09

PELP1 (UniProt Q8IZL8)
inactive: alvocidib -0.001 | Tubastatin A -0.042 | [1] -0.048 | defactinib 0.083 | [2] 0.112 | encorafenib 0.006 | [3] 0.052 | alisertib -0.003 | [4] -0.062 | gefitinib -0.085 | lapatinib -0.026 | pictilisib 0.015 | crizotinib -0.042 | [5] 0.115 | duvelisib -0.004 | gandotinib -0.053 | tozasertib -0.003 | doramapimod 0.001 | bafetinib -0.036 | [6] -0.044

PDCD2L (UniProt Q9BRP1)
inactive: alvocidib -0.034 | Tubastatin A -0.11 | [1] 0.053 | defactinib -0.062 | [2] -0.001 | encorafenib 0.025 | [3] 0.037 | alisertib -0.037 | [4] 0.007 | gefitinib -0.035 | lapatinib 0 | pictilisib 0.001 | crizotinib -0.056 | [5] -0.088 | duvelisib 0.028 | gandotinib 0.011 | tozasertib -0.005 | doramapimod 0.008 | bafetinib -0.05 | [6] 0.04

PEX13 (UniProt Q92968)
inactive: alvocidib 0.037 | Tubastatin A 0.037 | [1] 0.043 | defactinib 0.037 | [2] -0.061 | encorafenib -0.069 | [3] -0.169 | alisertib -0.008 | [4] -0.163 | gefitinib -0.015 | lapatinib 0.105 | pictilisib -0.114 | crizotinib -0.091 | [5] -0.076 | duvelisib -0.075 | gandotinib 0 | tozasertib 0.008 | doramapimod 0.007 | bafetinib -0.151 | [6] 0.038

PDHA1 isoform 4 (UniProt P08559)
inactive: alvocidib 0.053 | Tubastatin A -0.057 | [1] 0.027 | defactinib -0.019 | [2] -0.007 | encorafenib -0.024 | [3] 0.11 | alisertib -0.002 | [4] 0 | gefitinib 0.011 | lapatinib -0.011 | pictilisib -0.019 | crizotinib -0.08 | [5] 0.133 | duvelisib 0.083 | gandotinib -0.103 | tozasertib 0.058 | doramapimod 0.035 | bafetinib -0.022 | [6] -0.053

PDXP (UniProt Q96GD0)
inactive: alvocidib -0.016 | Tubastatin A 0.04 | [1] 0.006 | defactinib -0.039 | [2] 0.024 | encorafenib -0.029 | [3] -0.003 | alisertib -0.001 | [4] 0.011 | gefitinib 0.018 | lapatinib -0.024 | pictilisib -0.025 | crizotinib -0.029 | [5] -0.05 | duvelisib -0.01 | gandotinib 0.025 | tozasertib 0.007 | doramapimod 0.074 | bafetinib 0.002 | [6] 0

2 neighbouring entries already listed:
PDCD2L (UniProt Q9BRP1)
inactive: alvocidib -0.034 | Tubastatin A -0.11 | [1] 0.053 | defactinib -0.062 | [2] -0.001 | encorafenib 0.025 | [3] 0.037 | alisertib -0.037 | [4] 0.007 | gefitinib -0.035 | lapatinib 0 | pictilisib 0.001 | crizotinib -0.056 | [5] -0.088 | duvelisib 0.028 | gandotinib 0.011 | tozasertib -0.005 | doramapimod 0.008 | bafetinib -0.05 | [6] 0.04

PEX13 (UniProt Q92968)
inactive: alvocidib 0.037 | Tubastatin A 0.037 | [1] 0.043 | defactinib 0.037 | [2] -0.061 | encorafenib -0.069 | [3] -0.169 | alisertib -0.008 | [4] -0.163 | gefitinib -0.015 | lapatinib 0.105 | pictilisib -0.114 | crizotinib -0.091 | [5] -0.076 | duvelisib -0.075 | gandotinib 0 | tozasertib 0.008 | doramapimod 0.007 | bafetinib -0.151 | [6] 0.038

Additional entries follow.

PCNT (UniProt O95613)
inactive: alvocidib -0.093 | Tubastatin A -0.061 | [1] -0.017 | defactinib -0.009 | [2] 0.015 | encorafenib 0.015 | [3] -0.029 | alisertib 0.007 | [4] 0.008 | gefitinib 0.019 | lapatinib -0.016 | pictilisib -0.012 | crizotinib -0.04 | [5] -0.15 | duvelisib -0.005 | gandotinib 0.113 | tozasertib 0.034 | doramapimod 0.04 | bafetinib -0.039 | [6] 0.118

PBK (UniProt Q96KB5)
inactive: alvocidib 0.013 | Tubastatin A -0.041 | [1] -0.001 | defactinib -0.004 | [2] -0.015 | encorafenib -0.011 | [3] 0.099 | alisertib -0.013 | [4] -0.003 | gefitinib -0.023 | lapatinib -0.024 | pictilisib -0.011 | crizotinib -0.005 | [5] 0.013 | duvelisib -0.006 | gandotinib -0.066 | tozasertib -0.005 | doramapimod -0.021 | bafetinib -0.02 | [6] -0.01
